Measured data: PubChem BioAssay AID602196 (INSERM, 2012)

Aim: 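Knock-downs that protect lung cancer cells from cisplatin or sensitise them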
Cells: human A549 lung cancer cells
Reagent: siRNA pair against human genes
Duration: 48 h transfection before cisplatin; time from cisplatin to read-out not stated
Treatment: cisplatin at a dose killing half of control-siRNA cells; exact dose and duration not given
Measured: 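Cisplatin cell death as a shift from the 50% death seen with control siRNA; siRNAs toxic or growth-blocking alone scored 0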
Reading the numbers: two-siRNA summed score (-2 to +2): higher = both siRNAs protect from cisplatin killing; -2 means both sensitise; mean protection from cisplatin (shift in death) and protection from cisplatin (shift in death), siRNA C: higher = protection from cisplatin killing
Rule for the call: 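Each siRNA scores 0 if harmful alone by LDH or WST-1, otherwise +1 if it reduces and -1 if it increases cisplatin killing; a gene is active when both siRNAs agree (sum +2 or -2)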
Calls: active = both siRNAs shift cisplatin killing the same way; inactive = no consistent shift, or siRNA harmful alone
The whole screen tested about 23,000 reagents; shown is a part drawn at random. 455 of all reagents (2%) count as active. 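Active includes both protection and sensitisation; some change values fall well beyond the stated -50 to +50 range.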 Unmarked entries are inactive. Further read-outs or replicates are left out here. Not given: the amount of reagent.

target,two-siRNA summed score (-2 to +2),mean protection from cisplatin (shift in death) (%),"protection from cisplatin (shift in death), siRNA C (%)"
ZNF471,0,-5.2,-7
DSCR10,0,-3.2,-12.7
IDI1,0,-3.2,-10.5
APLP2,-1,-11.3,-6.1
PCDH1,-1,-7.6,11.3
RAE1,0,-6.6,-15.6
TFF1,-2 (active),-32.2,-31.5
MYO1D,0,5.8,14.7
ZNF354B,0,-1.9,1.1
ATP6V1B2,0,3,12.9
IGFBP1,-1,-12.1,-33.7
LOC440534,0,8.9,9.4
ACYP1,0,8.5,13.9
OVCH2,1,8.9,-3.8
ASB12,0,10.9,12.1
RNF24,-1,-14,-8.3
OR10G8,1,11,21.1
CCDC15,0,4.6,3
MGAT4D,0,10,23
LINC00174,0,28.6,51.1
HIBADH,0,8,9.6
SEMA3B,0,11.9,19.9
XCL1,0,5.3,10.5

Reformatted: 2 of the entries above.
{"target": "SEMA3B", "two-siRNA summed score (-2 to +2)": 0, "mean protection from cisplatin (shift in death) (%)": 11.9, "protection from cisplatin (shift in death), siRNA C (%)": 19.9}
{"target": "XCL1", "two-siRNA summed score (-2 to +2)": 0, "mean protection from cisplatin (shift in death) (%)": 5.3, "protection from cisplatin (shift in death), siRNA C (%)": 10.5}
